Laboratory results as given in PMC8586336.
Numbering of substitutions follows the chain as printed. No constants are given. Whether binding was seen depends on the method and setting. Binding seen in cells or lysates may run through a third protein. Tags and fused reporters may be left off the sequences shown. Values belong to the binder of their own block, whether it stands above or below them.

Chains of the proteins cited; added tags and fusions are not shown.
UniProt Q96SW2: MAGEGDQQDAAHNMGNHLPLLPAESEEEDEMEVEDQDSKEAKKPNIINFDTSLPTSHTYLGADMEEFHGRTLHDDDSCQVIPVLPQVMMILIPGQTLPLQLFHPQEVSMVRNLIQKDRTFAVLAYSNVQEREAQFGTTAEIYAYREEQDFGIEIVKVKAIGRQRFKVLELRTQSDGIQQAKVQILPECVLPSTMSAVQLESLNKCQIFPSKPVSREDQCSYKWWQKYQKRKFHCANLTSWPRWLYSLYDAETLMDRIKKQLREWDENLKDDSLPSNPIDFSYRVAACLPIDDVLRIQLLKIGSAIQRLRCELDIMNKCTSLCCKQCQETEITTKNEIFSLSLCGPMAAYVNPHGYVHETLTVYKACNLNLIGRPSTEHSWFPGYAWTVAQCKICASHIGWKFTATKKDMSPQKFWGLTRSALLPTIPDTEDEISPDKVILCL

Molecular target: FLAG-HA (FH)-tagged human CRBN (human) (UniProt Q96SW2)
Assay: co-IP; FH-CRBN and the tagged PLZF protein expressed in 293T; extracts in 1% Triton lysis buffer incubated 12 h with or without pomalidomide; anti-HA beads; immunoblot

binding: no binding
B1: PLZF^G410/438/467A (Myc-FLAG tagged) (protein, UniProt Q05516 1-673)
chain: MDLTKMGMIQLQNPSHPTGLLCKANQMRLAGTLCDVVIMVDSQEFHAHRTVLACTSKMFEILFHRNSQHYTLDFLSPKTFQQILEYAYTATLQAKAEDLDDLLYAAEILEIEYLEEQCLKMLETIQASDDNDTEATMADGGAEEEEDRKARYLKNIFISKHSSEESGYASVAGQSLPGPMVDQSPSVSTSFGLSAMSPTKAAVDSLMTIGQSLLQGTLQPPAGPEEPTLAGGGRHPGVAEVKTEMMQVDEVPSQDSPGAAESSISGGMGDKVEERGKEGPGTPTRSSVITSARELHYGREESAEQVPPPAEAGQAPTGRPEHPAPPPEKHLGIYSVLPNHKADAVLSMPSSVTSGLHVQPALAVSMDFSTYGGLLPQGFIQRELFSKLGELAVGMKSESRTIGEQCSVCAVELPDNEAVEQHRKLHSGMKTYGCELCAKRFLDSLRLRMHLLAHSAGAKAFVCDQCAAQFSKEDALETHRQTHTGTDMAVFCLLCGKRFQAQSALQQHMEVHAGVRSYICSECNRTFPSHTALKRHLRSHTGDHPYECEFCGSCFRDESTLKSHKRIHTGEKPYECNGCGKKFSLKHQLETHYRVHTGEKPFECKLCHQRSRDYSAMIKHLRTHNGASPYQCTICTEYCPSLSSMQKHMKGHKPEEIPPDWRIEKTYLYLCYV

binding: no binding
B2: PLZF^G410/467A (Myc-FLAG tagged) (protein, UniProt Q05516 1-673)
chain: B1 chain with A438G
